In PubChem BioAssay AID1688 (National Center for Advancing Translational Sciences (NCATS), 2009):
Among all 220,000 compounds or so, about 2,400 (1.1%) were called active. Inconclusive means that the source gave no clear call. Such entries were picked first, then a sample of the others. The call rests on the fitted dose curve; in most records, active means well fitted inhibition curve with a large enough effect; inconclusive means small, poorly fitted or top-dose-only effect, or effect the other way; inactive means no such curve, though single readings can be large or run the other way. A potency beside an inconclusive call is a rough fit, not a confirmed value.

Test: qHTS Multiplex Assay to Identify Dual Action Probes in a Cell Model of Huntington: Aggregate Formation (GFP); further: nearly all actives have a fitted effect of over 60% in size
Conditions: PC12 HttQ103-GFP aggregates, Acumen cytometry, 40 h; activity change, negative = inhibition: at 46.1 µM (top of the series) unless noted
Method in brief: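 Aggregates are detected as GFP objects 1–25 µm with signal 6 STDEV over background in lysates of induced PC12 cells. These carry Huntingtin exon 1 with 103 glutamines fused to GFP under an ecdysone promoter; compounds titrated.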
On the % scale 0 is the no-effect control and ±100 the full control effect; potency means the concentration at half of the fitted maximal effect.

SMILES	Potency	activity change, negative = inhibition
CC1CC(C)CN(C(=O)C(NS(=O)(=O)c2ccc(Br)s2)c2ccccc2)C1 (centres undefined)	inconclusive: 5.62 µM [inhibitor, full curve]	–
O=C(c1ccccc1)n1c(=S)nc2ccccn21	inactive	–
Cc1cccn2c(Nc3ccccc3)c(-c3ccccn3)nc12	inconclusive: 35.5 µM [inhibitor, single point]	–
CC(C)(C)c1ccc(C(=O)CC(=O)c2cc(Cl)ccc2O)cc1	inconclusive: 3.16 µM [inhibitor, partial curve, poor fit]	–
CN(C1CCCCC1)S(=O)(=O)c1ccc(NC(=O)c2ccc(Br)o2)cc1	active: 22.4 µM	–
COc1cccc(-c2csc(N3CCN(C(=O)Nc4ccccc4Cl)CC3)n2)c1	–	inactive: 5.82% [at 9.22 µM]
O=C(Nc1ccccc1)c1cccnc1NCCc1ccccc1	inconclusive: 35.5 µM [inhibitor, single point]	–
O=C(CNS(=O)(=O)c1cccs1)N1CCCC1	inconclusive: 3.16 µM [inhibitor, partial curve]	–
COc1cccc(NCc2cc(=O)oc3cc(-c4ccccc4)c(O)cc23)c1	inactive	–
COc1cccc(NC(=O)CSC(N)=O)c1	inactive	–
O=C(/C=C/c1ccco1)Oc1cc(Br)cc(/C=N/NC(=O)c2ccccc2O)c1	active: 2.24 µM	–
O=C(Nc1cccc(-c2cnc3ccccc3n2)c1)c1ccco1	inconclusive: 35.5 µM [inhibitor, partial curve, poor fit]	–
Cc1cccc(OCCSc2ncnc3nc[nH]c23)c1	inconclusive: 35.5 µM [inhibitor, single point]	–
Cc1ccc(S(=O)(=O)c2nc(-c3ccc(F)cc3)oc2SCC(N)=O)cc1	inconclusive: 1.58 µM [activator, full curve, poor fit]	–
CCC(C)NCCOCCOc1ccc(Br)cc1C (centres undefined)	inconclusive: 25.1 µM [inhibitor, single point]	–
Cc1ccc2nc(NC(=O)C3CCN(S(=O)(=O)c4cc([N+](=O)[O-])ccc4Cl)CC3)sc2c1	inconclusive: 31.6 µM [inhibitor, single point]	–
CC(=NCc1ccco1)c1c(C(F)(F)F)[nH]n(-c2nc3ccccc3s2)c1=O	inconclusive: 6.31 µM [activator, partial curve]	–
Cc1ccn2c(NC3CCCC3)c(-c3ccccn3)nc2c1	inconclusive: 31.6 µM [inhibitor, single point]	–
CC1=C(C(=O)OCc2ccccc2)C(/C=C/c2ccccc2)NC(=S)N1 (centres undefined)	inconclusive: 35.5 µM [inhibitor, single point]	–

Complete entries from above. Values in the order: Potency | activity change, negative = inhibition
COc1cccc(NCc2cc(=O)oc3cc(-c4ccccc4)c(O)cc23)c1 in the list: inactive | –
O=C(/C=C/c1ccco1)Oc1cc(Br)cc(/C=N/NC(=O)c2ccccc2O)c1 in the list: active: 2.24 µM | –
